Consider 31 targets from the supplement of paper PMC12819154, “High-throughput peptide-centric local stability assay extends protein–ligand identification to membrane proteins, tissues and bacteria” (Nature Structural & Molecular Biology, 2025).

Chains of the proteins cited; added tags and fusions are not shown. Lines headed by an entry give the natural chain unless they say otherwise; changes in a name come on top.
UniProt Q8R0F9: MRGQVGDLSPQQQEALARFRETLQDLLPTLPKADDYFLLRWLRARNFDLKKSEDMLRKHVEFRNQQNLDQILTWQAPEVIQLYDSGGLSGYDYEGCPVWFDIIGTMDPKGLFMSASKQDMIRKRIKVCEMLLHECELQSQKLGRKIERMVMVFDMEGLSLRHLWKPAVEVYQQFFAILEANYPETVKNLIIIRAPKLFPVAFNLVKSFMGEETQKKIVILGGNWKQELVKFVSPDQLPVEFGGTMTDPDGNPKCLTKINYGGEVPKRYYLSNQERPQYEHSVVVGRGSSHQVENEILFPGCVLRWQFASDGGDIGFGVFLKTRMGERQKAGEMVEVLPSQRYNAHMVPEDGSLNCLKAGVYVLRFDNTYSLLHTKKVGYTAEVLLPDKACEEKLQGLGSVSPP
UniProt Q8R043: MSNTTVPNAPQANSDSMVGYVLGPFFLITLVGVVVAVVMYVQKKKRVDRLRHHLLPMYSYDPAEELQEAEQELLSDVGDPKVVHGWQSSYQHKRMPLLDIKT
UniProt Q8R0J8: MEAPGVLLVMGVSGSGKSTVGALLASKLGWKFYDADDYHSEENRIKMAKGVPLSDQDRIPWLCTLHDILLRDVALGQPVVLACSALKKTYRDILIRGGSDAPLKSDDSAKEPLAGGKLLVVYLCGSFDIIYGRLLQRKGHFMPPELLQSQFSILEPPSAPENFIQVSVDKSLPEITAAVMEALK
UniProt Q8K4H1: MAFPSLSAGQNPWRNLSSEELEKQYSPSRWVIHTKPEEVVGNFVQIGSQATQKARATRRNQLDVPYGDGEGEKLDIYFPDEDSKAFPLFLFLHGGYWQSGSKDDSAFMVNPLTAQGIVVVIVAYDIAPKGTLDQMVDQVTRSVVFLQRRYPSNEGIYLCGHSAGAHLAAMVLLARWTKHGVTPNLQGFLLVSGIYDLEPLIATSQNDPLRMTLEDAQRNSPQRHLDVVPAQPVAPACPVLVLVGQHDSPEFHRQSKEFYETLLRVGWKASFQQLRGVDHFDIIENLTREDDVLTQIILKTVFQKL
UniProt Q8K1E6: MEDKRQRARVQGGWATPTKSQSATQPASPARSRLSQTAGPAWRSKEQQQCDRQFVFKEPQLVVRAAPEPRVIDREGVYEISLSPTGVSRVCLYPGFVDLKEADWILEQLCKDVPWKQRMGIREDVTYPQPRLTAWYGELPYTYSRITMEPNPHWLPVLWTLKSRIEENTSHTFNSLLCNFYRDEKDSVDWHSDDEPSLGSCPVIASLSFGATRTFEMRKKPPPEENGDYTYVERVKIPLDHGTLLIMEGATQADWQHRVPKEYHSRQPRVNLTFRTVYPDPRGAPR
UniProt Q8R2Q8: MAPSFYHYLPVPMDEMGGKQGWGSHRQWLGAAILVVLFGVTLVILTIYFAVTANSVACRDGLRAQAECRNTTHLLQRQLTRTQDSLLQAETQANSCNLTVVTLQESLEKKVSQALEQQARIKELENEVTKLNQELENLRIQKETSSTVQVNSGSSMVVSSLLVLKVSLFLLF
UniProt Q8K352: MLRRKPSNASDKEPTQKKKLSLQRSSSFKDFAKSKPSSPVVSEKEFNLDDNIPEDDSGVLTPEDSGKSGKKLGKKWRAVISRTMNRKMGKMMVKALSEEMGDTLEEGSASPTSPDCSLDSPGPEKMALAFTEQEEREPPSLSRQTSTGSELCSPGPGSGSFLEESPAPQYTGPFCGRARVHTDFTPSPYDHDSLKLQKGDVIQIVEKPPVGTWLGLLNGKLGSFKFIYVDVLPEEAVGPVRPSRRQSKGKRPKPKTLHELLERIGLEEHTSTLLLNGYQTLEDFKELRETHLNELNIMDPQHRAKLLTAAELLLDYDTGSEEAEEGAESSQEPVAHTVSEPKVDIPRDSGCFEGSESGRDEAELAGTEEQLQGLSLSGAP
UniProt Q8K4P0: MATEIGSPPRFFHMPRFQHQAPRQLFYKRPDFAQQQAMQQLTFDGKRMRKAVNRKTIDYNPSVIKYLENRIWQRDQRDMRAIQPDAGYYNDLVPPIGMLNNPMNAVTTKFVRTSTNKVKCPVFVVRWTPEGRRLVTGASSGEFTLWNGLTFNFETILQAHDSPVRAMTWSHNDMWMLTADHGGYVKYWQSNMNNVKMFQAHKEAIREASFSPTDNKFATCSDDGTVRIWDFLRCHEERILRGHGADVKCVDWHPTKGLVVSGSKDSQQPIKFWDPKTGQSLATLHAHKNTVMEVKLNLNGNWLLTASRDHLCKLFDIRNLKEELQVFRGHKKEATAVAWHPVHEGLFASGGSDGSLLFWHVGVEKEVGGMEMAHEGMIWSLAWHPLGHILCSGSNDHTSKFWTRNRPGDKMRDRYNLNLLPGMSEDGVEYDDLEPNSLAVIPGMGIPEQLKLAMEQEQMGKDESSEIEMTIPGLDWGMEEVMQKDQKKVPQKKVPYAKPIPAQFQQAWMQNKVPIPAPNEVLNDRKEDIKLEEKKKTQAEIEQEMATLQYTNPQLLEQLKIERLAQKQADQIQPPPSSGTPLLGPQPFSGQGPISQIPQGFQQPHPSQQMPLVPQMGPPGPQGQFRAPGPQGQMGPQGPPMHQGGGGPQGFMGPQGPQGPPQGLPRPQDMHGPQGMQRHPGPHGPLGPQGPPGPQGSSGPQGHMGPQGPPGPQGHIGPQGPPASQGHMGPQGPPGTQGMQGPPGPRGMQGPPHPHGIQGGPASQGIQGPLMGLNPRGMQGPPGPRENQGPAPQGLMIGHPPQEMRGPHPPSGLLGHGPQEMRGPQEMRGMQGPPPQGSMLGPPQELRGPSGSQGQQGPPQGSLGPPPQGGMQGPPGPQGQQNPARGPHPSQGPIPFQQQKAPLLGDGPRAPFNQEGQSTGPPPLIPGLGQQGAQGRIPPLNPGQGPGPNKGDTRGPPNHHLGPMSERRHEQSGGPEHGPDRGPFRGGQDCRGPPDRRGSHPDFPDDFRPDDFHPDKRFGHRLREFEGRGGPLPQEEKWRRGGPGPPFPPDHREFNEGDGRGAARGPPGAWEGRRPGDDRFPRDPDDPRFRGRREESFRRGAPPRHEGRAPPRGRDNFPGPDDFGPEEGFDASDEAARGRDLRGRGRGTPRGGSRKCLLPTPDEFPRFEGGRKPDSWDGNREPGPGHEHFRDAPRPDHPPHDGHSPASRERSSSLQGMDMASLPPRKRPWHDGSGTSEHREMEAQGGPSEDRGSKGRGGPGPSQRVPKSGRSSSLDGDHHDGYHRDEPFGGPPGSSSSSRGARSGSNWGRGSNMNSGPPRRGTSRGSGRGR
UniProt Q8QZZ8: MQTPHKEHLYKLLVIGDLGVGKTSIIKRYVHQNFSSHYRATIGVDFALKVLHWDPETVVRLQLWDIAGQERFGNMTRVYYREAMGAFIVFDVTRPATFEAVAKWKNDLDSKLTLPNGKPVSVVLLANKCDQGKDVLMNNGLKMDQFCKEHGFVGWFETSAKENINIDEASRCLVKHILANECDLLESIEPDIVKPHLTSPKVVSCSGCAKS
UniProt Q8K124: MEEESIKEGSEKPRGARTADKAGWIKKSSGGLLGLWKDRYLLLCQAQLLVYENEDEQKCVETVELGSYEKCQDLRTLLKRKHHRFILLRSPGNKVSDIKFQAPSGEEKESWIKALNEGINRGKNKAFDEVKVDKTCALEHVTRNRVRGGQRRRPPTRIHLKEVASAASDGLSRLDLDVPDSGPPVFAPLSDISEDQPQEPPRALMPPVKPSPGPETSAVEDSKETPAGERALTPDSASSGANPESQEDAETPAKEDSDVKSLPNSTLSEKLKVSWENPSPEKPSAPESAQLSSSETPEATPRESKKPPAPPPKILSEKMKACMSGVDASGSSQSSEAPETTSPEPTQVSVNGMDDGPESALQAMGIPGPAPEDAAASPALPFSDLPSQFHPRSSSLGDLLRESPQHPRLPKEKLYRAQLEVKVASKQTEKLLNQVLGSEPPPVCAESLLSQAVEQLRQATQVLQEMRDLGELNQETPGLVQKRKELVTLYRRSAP
UniProt Q8R0F5: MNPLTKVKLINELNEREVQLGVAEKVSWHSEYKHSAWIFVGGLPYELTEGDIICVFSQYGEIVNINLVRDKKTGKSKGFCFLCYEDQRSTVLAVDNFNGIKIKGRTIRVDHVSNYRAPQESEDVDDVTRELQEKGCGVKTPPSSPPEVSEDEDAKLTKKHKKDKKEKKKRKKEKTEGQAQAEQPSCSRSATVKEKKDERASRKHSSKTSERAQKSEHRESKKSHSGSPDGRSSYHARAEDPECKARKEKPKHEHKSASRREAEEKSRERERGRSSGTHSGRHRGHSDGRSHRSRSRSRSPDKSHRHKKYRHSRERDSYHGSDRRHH
UniProt Q8K2K6: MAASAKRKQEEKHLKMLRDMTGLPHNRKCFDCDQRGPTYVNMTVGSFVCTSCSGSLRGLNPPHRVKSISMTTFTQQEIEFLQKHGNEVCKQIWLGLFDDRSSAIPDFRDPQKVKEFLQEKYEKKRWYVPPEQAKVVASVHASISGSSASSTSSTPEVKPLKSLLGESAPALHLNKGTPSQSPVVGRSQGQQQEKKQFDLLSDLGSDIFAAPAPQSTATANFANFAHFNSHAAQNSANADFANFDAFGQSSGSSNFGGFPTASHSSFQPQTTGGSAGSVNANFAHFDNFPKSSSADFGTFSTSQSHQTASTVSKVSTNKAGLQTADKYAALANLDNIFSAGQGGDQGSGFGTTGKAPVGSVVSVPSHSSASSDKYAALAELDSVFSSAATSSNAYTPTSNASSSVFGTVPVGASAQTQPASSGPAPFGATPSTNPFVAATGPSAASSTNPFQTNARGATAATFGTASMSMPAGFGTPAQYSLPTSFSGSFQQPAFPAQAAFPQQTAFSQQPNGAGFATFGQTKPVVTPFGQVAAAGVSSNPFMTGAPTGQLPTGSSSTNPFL
UniProt Q8R033: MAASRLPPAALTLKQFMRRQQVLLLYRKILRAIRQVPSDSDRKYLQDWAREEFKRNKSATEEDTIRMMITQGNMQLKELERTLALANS
UniProt Q8R0J1: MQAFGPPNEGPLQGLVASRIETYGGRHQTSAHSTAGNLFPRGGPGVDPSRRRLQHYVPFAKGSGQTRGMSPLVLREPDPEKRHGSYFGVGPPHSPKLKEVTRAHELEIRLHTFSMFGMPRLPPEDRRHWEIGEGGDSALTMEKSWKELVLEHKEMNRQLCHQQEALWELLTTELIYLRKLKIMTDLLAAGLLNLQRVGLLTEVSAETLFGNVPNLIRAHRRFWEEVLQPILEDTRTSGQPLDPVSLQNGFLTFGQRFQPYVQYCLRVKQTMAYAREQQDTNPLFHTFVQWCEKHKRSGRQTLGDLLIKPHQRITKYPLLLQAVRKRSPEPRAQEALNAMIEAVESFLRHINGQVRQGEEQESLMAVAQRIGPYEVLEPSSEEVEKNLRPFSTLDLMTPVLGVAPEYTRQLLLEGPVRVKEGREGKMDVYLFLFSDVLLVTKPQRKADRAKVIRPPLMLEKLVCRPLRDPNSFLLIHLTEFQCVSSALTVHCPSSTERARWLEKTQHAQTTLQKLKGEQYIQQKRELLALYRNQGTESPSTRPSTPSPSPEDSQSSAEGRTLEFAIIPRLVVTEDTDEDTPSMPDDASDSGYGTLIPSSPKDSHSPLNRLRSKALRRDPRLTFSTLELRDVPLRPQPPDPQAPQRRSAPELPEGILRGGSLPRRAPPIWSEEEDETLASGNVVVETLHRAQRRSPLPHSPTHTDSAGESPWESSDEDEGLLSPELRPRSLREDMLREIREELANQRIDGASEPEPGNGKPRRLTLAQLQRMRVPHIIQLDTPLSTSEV
UniProt Q8K3W0, whole entry: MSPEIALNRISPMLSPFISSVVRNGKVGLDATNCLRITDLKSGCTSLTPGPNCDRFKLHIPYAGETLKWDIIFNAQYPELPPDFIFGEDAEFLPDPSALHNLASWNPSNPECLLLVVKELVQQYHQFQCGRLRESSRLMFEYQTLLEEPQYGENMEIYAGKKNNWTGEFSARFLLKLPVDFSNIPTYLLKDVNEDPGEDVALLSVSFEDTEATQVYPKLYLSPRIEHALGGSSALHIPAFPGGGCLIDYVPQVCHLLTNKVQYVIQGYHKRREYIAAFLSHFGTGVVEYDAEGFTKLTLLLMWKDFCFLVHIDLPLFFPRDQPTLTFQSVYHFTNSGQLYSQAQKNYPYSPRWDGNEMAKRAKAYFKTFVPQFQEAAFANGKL
UniProt Q8K273: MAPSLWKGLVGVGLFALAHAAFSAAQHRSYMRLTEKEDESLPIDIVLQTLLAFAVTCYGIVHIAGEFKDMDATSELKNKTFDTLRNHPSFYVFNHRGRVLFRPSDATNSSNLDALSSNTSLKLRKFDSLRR
UniProt Q8R0A2: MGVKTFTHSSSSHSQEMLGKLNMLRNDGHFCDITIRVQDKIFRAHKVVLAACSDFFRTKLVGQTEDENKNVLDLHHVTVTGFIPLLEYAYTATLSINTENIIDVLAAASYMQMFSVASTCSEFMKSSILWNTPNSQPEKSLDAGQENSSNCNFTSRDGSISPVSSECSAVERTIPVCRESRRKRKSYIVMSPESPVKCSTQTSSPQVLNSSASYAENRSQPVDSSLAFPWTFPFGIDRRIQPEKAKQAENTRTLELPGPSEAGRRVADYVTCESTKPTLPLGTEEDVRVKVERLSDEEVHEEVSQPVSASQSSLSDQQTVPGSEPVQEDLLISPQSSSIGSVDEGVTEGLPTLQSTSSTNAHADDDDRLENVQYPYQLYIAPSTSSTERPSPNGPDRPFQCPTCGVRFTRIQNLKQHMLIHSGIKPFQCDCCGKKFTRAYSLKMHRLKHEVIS

The list shows a part of the results. Most entries show no effect beyond the scatter of the controls.

Compound in this assay: CN[C@@H]1C[C@H]2O[C@@](C)([C@@H]1OC)n1c3ccccc3c3c4c(c5c6ccccc6n2c5c31)C(=O)NC4 [staurosporine]
The experiment in a line: log2 fold change of tryptic peptide abundance, ligand vs vehicle (limited proteolysis) (log2 ratio); higher = more trypsin-susceptible (destabilized). As to conditions: ligand concentration: 20 uM; sample: mouse liver crude lysate; replicate design: treated separately.
For the target “UniProt Q8R205 (peptide sequence: RHDLYDIYDLPER, peptide start residue: 187)”, the log2 fold change is -0.429.
Then “UniProt Q8R0F9 (peptide sequence: QKAGEMVEVLPSQR, peptide start residue: 328)”, with -0.506.
Turning to “UniProt Q8R043 (peptide sequence: VVHGWQSSYQHK, peptide start residue: 82)”, the log2 fold change is -0.0476.
“UniProt Q8K2D3 (peptide sequence: NVHQRPTVALLCGPHVK, peptide start residue: 330)”: the log2 fold change was -0.12.
With “UniProt Q8R0J8 (peptide sequence: DVALGQPVVLACSALKK, peptide start residue: 72)” the figure was 0.151.
On to “UniProt Q8K4H1 (peptide sequence: EFYETLLR, peptide start residue: 257)”, for which the log2 fold change is -0.0896.
In the case of “UniProt Q8K1E6 (peptide sequence: KKPPPEENGDYTYVER, peptide start residue: 219)”, the log2 fold change was found to be 0.322.
Then “UniProt Q8R2Q8 (peptide sequence: KVSQALEQQAR, peptide start residue: 110)”, with 0.362; and “UniProt Q8K352 (peptide sequence: SKPSSPVVSEK, peptide start residue: 34)”, with 0.146.
Take “UniProt Q8K4P0 (peptide sequence: SSSLDGDHHDGYHR, peptide start residue: 1271)”: the log2 fold change came to 0.358.
Then “UniProt Q8QZZ8 (peptide sequence: LQLWDIAGQER, peptide start residue: 75)”, with 0.0323; and “UniProt Q8K3K7 (peptide sequence: LVDTCYQSMR, peptide start residue: 244)”, with -0.408; and “UniProt Q8K3A0 (peptide sequence: YFSNIEEK, peptide start residue: 219)”, with 0.271.
With “UniProt Q8K136 (peptide sequence: APHYNSCCRR, peptide start residue: 120)” the figure was -0.206; with “UniProt Q8K124 (peptide sequence: ELVTLYR, peptide start residue: 485)”, 0.12.
As to “UniProt Q8QZR1 (peptide sequence: ARWNVRPSDMSNK, peptide start residue: 39)”, the log2 fold change is -0.327.
As to “UniProt Q8R0F5 (peptide sequence: VKLINELNER, peptide start residue: 7)”, the log2 fold change is -0.871.
Then “UniProt Q8K2K6 (peptide sequence: SSAIPDFRDPQKVK, peptide start residue: 101)”, with 0.215; and “UniProt Q8R033 (peptide sequence: QQVLLLYR, peptide start residue: 20)”, with -0.321; and “UniProt Q8K2Q7 (peptide sequence: GPGPTAKPSGHLFFR, peptide start residue: 296)”, with -0.777.
With “UniProt Q8K409 (peptide sequence: NEDKLNHHQR, peptide start residue: 128)” the figure was -0.824; with “UniProt Q8R1C6 (peptide sequence: SDTVLSDVHLYTPNQR, peptide start residue: 12)”, 0.105.
Then “UniProt Q8R0H9 (peptide sequence: SSHPEDLR, peptide start residue: 184)”, with -0.0708; and “UniProt Q8R2E9 (peptide sequence: SFPMHFDEK, peptide start residue: 352)”, with -0.357; and “UniProt Q8R0J1 (peptide sequence: LPPEDRR, peptide start residue: 121)”, with -0.224.
Consider “UniProt Q8K3W0 (peptide sequence: VGLDATNCLR, peptide start residue: 27)”, for which the log2 fold change was -0.159.
With “UniProt Q8K273 (peptide sequence: KFDSLRR, peptide start residue: 125)”, the log2 fold change was -0.11.
For “UniProt Q8K1I7 (peptide sequence: SGPLPPPPSERPPPPVRDPPGR, peptide start residue: 344)”, the log2 fold change was -0.354.
Regarding “UniProt Q8K3C3 (peptide sequence: VLALAGFDVEK, peptide start residue: 177)”, the log2 fold change was 0.0661.
Then “UniProt Q8R0A2 (peptide sequence: TLELPGPSEAGR, peptide start residue: 253)”, with 0.0248; and “UniProt Q8N7N6 (peptide sequence: IRGIDIIK, peptide start residue: 428)”, with -0.0982.
